Measurements published in article PMC11257983 (2024).
Residue numbers refer to the chain shown, from its start. Results are given in words; binding and its absence hold for the method and conditions named. In cells and extracts the contact can be indirect. Some entries that bind do so weakly or less than the wild type. Sequences can lack the tags named with a protein.

By UniProt entry, the sequences of proteins in these tests, tags left out.
UniProt Q24324: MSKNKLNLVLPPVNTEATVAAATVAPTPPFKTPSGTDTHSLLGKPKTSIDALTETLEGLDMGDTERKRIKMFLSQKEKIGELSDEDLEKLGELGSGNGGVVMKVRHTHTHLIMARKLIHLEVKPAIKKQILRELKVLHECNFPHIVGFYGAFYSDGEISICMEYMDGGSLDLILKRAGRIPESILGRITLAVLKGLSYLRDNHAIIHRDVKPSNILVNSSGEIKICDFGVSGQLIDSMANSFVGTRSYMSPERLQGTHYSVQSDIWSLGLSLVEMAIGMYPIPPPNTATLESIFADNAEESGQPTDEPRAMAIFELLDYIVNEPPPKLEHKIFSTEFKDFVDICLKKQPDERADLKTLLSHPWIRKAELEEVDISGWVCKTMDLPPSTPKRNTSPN

Experiments:
[1] = target: T1, Flag-CNK^2–549 (Drosophila) (UniProt Q7KNQ9); assay: pull-down; GST-HYP as bait, CNK^2–549 co-expressed in S2 cells with Ha-RAS^V12, Pyo-RAF, V5-KSR and Myc-MEK (RRKM); total lysates, overnight at 4 °C; immunoblot
T1 sequence: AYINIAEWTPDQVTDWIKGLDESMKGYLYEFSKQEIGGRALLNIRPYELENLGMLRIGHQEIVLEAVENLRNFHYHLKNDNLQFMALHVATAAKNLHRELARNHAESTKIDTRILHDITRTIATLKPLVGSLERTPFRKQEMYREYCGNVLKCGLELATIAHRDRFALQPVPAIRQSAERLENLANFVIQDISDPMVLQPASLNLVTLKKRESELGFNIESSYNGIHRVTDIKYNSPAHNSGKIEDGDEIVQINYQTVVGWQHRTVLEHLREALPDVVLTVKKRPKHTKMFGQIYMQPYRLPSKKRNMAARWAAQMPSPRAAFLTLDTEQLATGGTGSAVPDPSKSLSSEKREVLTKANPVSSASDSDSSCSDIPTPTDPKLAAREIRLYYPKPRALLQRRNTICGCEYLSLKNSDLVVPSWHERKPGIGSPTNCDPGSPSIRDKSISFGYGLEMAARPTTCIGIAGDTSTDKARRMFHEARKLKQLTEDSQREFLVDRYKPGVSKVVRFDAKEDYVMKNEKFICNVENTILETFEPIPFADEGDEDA

[2] = target: T2, V5-KSR K903D (Drosophila) (UniProt Q24171); assay: co-IP; anti-V5 immunoprecipitation of V5-KSR from S2 total lysates, protein A/G agarose, overnight at 4 °C; MEK blotted; without or with co-expressed CNK^2–549–HYP
T2 sequence: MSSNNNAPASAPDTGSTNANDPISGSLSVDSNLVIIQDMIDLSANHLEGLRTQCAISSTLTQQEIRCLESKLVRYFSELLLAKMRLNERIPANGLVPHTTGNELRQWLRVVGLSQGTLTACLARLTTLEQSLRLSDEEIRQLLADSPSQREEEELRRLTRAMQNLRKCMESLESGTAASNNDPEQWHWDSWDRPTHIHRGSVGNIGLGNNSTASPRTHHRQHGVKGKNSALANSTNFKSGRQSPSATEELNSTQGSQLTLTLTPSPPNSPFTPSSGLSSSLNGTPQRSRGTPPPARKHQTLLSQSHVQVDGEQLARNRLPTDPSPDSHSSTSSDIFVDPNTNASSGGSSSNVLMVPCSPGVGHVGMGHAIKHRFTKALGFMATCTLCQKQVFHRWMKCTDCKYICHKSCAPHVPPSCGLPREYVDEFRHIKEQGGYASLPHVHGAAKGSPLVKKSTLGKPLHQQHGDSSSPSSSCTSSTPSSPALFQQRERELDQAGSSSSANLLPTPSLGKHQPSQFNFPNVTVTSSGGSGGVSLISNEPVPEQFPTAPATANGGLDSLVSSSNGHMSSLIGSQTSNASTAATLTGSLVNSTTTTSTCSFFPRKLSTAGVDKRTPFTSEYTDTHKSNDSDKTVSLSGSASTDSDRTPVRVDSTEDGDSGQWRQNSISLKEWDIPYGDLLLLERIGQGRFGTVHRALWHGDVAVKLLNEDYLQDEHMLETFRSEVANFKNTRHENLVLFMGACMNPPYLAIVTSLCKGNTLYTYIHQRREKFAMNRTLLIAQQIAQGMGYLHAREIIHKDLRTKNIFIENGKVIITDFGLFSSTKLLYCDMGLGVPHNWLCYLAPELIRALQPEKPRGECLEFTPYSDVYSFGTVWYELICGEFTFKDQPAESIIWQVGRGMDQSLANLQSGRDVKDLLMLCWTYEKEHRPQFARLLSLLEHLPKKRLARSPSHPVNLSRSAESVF

[3] = target: T3, V5-KSR R913E (Drosophila) (UniProt Q24171); assay: as above
T3 sequence: T2 sequence with D903K, R913E

binding [1]: binds | binding [2]: binds | binding [3]: binds
Substance: Myc-MEK (from UniProt Q24324 1-396)
